Assay results from patent US20250263440A1 (PeptiDream Inc., priority 2019, published 2025).

Test: solid-phase peptide synthesis
Details: whole synthesis, linear gradient, 20-60% eluent B/eluent A in 20 min

Ala Arg Ahp Tyr His Asp Gly Val Leu Bph Ahp Asp Cys
final HPLC purity: 98.8%

Ala Leu His MePhe Val Leu Pro Bph Val Trp Val Cys
final HPLC purity: 98.4%
